Reference: US7119064B2, “Use of colostrinin, constituent peptides thereof, and analogs thereof as modulators of intracellular signaling molecules” (Board of Regents, The University of Texas System, priority 1999, dated 2006)
At least one compound was matched to its structure with a doubt left.

Tested on: SH-SY5Y cells
Test: Protection against retinoic acid toxicity in SH-SY5Y cells, microscopic grading
Assay type: cell-based
Conditions: retinoic acid 20 μM
Procedure: Retinoic Acid was left on the plate for the duration of the experiment or until washed off. Colostrinin was added to the plate at the indicated doses. When added on Day 1, it was present during the entire experiment. When added on Day 5, it was incubated on the plate for 30 minutes at 37° C. and then removed. The wells were washed twice with PBS before adding β-Amyloid. Cultures were then observed under the microscope and graded.

Q: Which “differentiation, retinoic acid alone” value does the source give for CC1=C(/C=C/C(C)=C/C=C/C(C)=C/C(=O)O)C(C)(C)CCC1 [Retinoic Acid] here?
A: induced differentiation in these cells by day two
